# In publication PMC5996148:
# “And” between values parts separate entries of the source, which are not always exact repeats. Equal entries are not always repeated. The list shows a part of the results.
# Experiments:
# Test in all cases: protein microarray (ProtoArray v5.0), streptavidin-Alexa Fluor 647
# Details in all cases: 3'-biotin; 20 mM Tris (pH 7.5), 5 mM MgCl2, 100 mM KCl, 0.1% Tween-20, A/T-rich and random oligonucleotide blockers; temperature not stated; high values mean tight binding
# [1] = test system: Glucose-fructose oxidoreductase domain-containing protein 1 (human)
# [2] = test system: Glutamate decarboxylase 1 (human)
# [3] = test system: Glutamate decarboxylase 2 (human)
# [4] = test system: Glutaminyl-tRNA synthetase (human)
# [5] = test system: Glutathione S-transferase A4 (human)
# [6] = test system: Glutathione S-transferase Mu 5 (human)
# [7] = test system: Glycolipid transfer protein (human)
# [8] = test system: Glycosyltransferase 1 domain-containing protein 1 (human)
# [9] = test system: Guanine nucleotide exchange factor for Rab3A (human)
# [10] = test system: Guanine nucleotide-binding protein subunit alpha-11 (human)
sequence,measurement,setting,value
GGGGACAGGGGTATGGGGAGGGG [G4-3 biotinylated (CtG)],binding signal,[1],-0.343 z-score
same,binding signal,[2],-0.321 z-score
same,binding signal,[3],-0.34 z-score
same,binding signal,[4],-0.332 z-score and -0.344 z-score
same,binding signal,[5],-0.339 z-score
same,binding signal,[6],-0.331 z-score
same,binding signal,[7],-0.344 z-score
same,binding signal,[8],-0.309 z-score
same,binding signal,[9],-0.306 z-score
same,binding signal,[10],-0.322 z-score
